Measurements: patent US20240082272A1, “COMPOSITIONS AND METHODS FOR TREATING WNT-DRIVEN CANCER” (The Regents of the University of Michigan, priority 2020, published 2024)
At least one structure is not confirmed: it was looked up by name or label, or the drawing left a doubt.

System: NCI-H295R
Experiment: RNA-seq transcriptome of NCI-H295R after drug treatment
Format: cell-based
Settings: 48 hours vs. vehicle control
Protocol: FIG. 6. Forskolin induces faithful zF differentiation and steroidogenesis in NCI-H295R. […] The induction of immediate early response programs is consistent with known mechanisms of action of PKA.
FIG. 21. EZH2i and CBPi redundantly disrupt the NCI-H295R transcriptome. […] Right, gene expression changes induced by EZH2i and CBPi are strongly correlated. […] C.
To evaluate if EZH2i disrupted zF differentiation, the NCI-H295R was treated with the zF differentiation agent forskolin and the transcriptome was profiled by RNA-seq. Despite that CIMP-high as a class is at the zF differentiation maximum across human ACC (FIG. 5), the presence of mutant CTNNB1 in this cell line and high levels of nuclear β-catenin are likely to enable faithful responsiveness to forskolin and refractory response to Wnt/β-catenin stimulants, analogously to the Y1 cell line.
The NCI-H295R response to CBPi was evaluated by RNA-seq and compared to the NCI-H295R response to EZH2i. […] Similarly to EZH2i, CBPi induces downregulation of all core modules that define CIMP-high ACC (FIG. 22). Taken together, the results point to adrenocortical differentiation as a targetable therapeutic vulnerability selected for in CIMP-high ACC.

C=C[C@@]1(C)CC(=O)[C@]2(O)[C@@]3(C)[C@@H](O)CCC(C)(C)[C@@H]3[C@H](O)[C@H](OC(C)=O)[C@@]2(C)O1 [forskolin]
expression of steroidogenic enzymes: potently induced expression of steroidogenic enzymes | endogenous Wnt/β-catenin signaling (TCF) (RNA-seq and ATAC-seq (diffTF)): shutting down endogenous Wnt/β-catenin signaling
